Assay results taken from PubChem BioAssay AID485353 (National Center for Advancing Translational Sciences (NCATS), 2010).
The whole screen tested about 330,000 compounds, of which about 610 (0.18%) were called active. This list was built around the results that the source calls inconclusive (neither active nor inactive); the mix of calls is not that of the screen. Calls follow the shape of the full dose curve. Potencies beside an inconclusive call are fits to weak or partial responses and may not hold up.

assay: qHTS of Yeast-based Assay for SARS-CoV PLP; also: nearly all actives have a fitted effect of over 55% in size; conditions: S. cerevisiae expressing SARS-CoV PLpro; Potency: growth rescue; series mostly up to 32.9 µM
Potency is read from the fitted curve at half-maximal effect.

Compound | Potency
O=C(O)CSc1c2c(nc3cc(C(=O)Nc4cccc(C(F)(F)F)c4)ccc13)CCC2 | inconclusive: 12.6 µM [activator, single point]
Cc1ccc(Cl)cc1NC(=O)c1cc(NC(=O)C2CCCCC2C(=O)O)ccc1N1CCOCC1 (stereo unspecified) | inconclusive: 2.51 µM [activator, single point]
CCN(CC)C(=O)N1c2ccccc2CC(N(CC)CC)c2ccccc21 (stereo unspecified) | inconclusive: 22.4 µM [activator, single point]
O=c1c2c3c(sc2nc2n1CCCCC2)CCCC3 | active: 4.47 µM
CSc1nc(Cl)cc(Nc2ccc(O)cc2)n1 | inactive
COc1ccc(OC)c2[nH]c(=O)c(CCNC(=O)c3cc4ccccc4o3)cc12 | inactive
CC(=O)c1c(C)[nH]c(C(=O)N(C)CC(=O)Nc2ccc(Cl)c(C(F)(F)F)c2)c1C | inconclusive: 1.26 µM [activator, partial curve]
CC(=O)c1ccc(OCCCC(=O)Nc2ccc(S(=O)(=O)N3CCOCC3)cc2)cc1 | active: 11.2 µM
CSC1=NCCN1C(=O)c1ccc2c(c1)OCO2 | inconclusive: 3.55 µM [activator, single point]
CC(NC(=S)NC(=O)c1cccs1)c1ccccc1 (stereo unspecified) | inconclusive: 2.82 µM [activator, single point]
CCS(=O)(=O)N1CCN(S(=O)(=O)c2ccc(S(=O)(=O)NC3CC3)cc2)CC1 | inconclusive: 3.55 µM [activator, single point]
O=C(CNC(=O)c1ccco1)NCC(=O)OCc1cccc(C(=O)Oc2ccccc2)c1 | inconclusive: 2.82 µM [activator, single point]
Cn1c(=O)cc(SCC(=O)N2CCCC2)c2ccc(Cl)cc21 | inconclusive: 4.47 µM [activator, single point]
CC(C)C(=O)NC(c1ccc(Cl)cc1Cl)c1ccc2cccnc2c1O (stereo unspecified) | inconclusive: 2.82 µM [activator, single point]
CCOC(=O)C(O)(c1ccc(N(C)C(=O)c2ccc(Cl)c(Cl)c2)cc1)C(F)(F)F (stereo unspecified) | inconclusive: 0.355 µM [activator, partial curve, poor fit]
COc1cc(-n2c(C)nc3cc(C(=O)NCc4ccco4)ccc32)cc(OC)c1OC | inconclusive: 3.55 µM [activator, single point]
COc1ccc(CNC(=O)C2CCN(S(=O)(=O)c3ccc4c(c3)CC(C)N4C(=O)C3CC3)CC2)cc1 (stereo unspecified) | inactive
CCC(C(=O)OC)n1cnc2c(oc3ccccc32)c1=O (stereo unspecified) | inconclusive: 4.47 µM [activator, single point]
Cc1ccnc(NC(=O)c2ccc(OCC3CCCO3)cc2)c1 (stereo unspecified) | inactive
O=c1[nH]c(O)c(N=Nc2ccc3c(c2)OCCO3)c(=O)[nH]1 | inactive
COc1cc(CN2CCCC(C(=O)c3ccc4c5c(cccc35)CC4)C2)cc(OC)c1O (stereo unspecified) | inactive
Cc1cccc(CS(=O)(=O)c2ncc(Cl)c(C(=O)Nc3c(C)cccc3C)n2)c1 | inactive
COc1ccc(CNCCNC(=O)c2cccs2)c(OC)c1OC | inactive
CCC1C/C(=C\c2cccnc2)C(=O)/C(=C/c2cccnc2)C1 (stereo unspecified) | inactive

In another format: results already given.
Compound	Potency
CC(=O)c1ccc(OCCCC(=O)Nc2ccc(S(=O)(=O)N3CCOCC3)cc2)cc1	active: 11.2 µM
CSC1=NCCN1C(=O)c1ccc2c(c1)OCO2	inconclusive: 3.55 µM [activator, single point]
CC(NC(=S)NC(=O)c1cccs1)c1ccccc1 (stereo unspecified)	inconclusive: 2.82 µM [activator, single point]
CCS(=O)(=O)N1CCN(S(=O)(=O)c2ccc(S(=O)(=O)NC3CC3)cc2)CC1	inconclusive: 3.55 µM [activator, single point]

Carrying on.

Compound | Potency
COc1ccc(/C=N\NC(=O)c2c(C)nc3ccc(Br)cn23)cc1 | inconclusive: 22.4 µM [activator, single point]
CCN(c1ccc(OC)cc1)S(=O)(=O)c1nnc(NC(=O)COc2ccccc2)s1 | inconclusive: 20 µM [activator, single point]
CC(C)OC(=O)c1ccc(NC(=O)CSc2nc3ncccc3[nH]2)cc1 | inactive
COc1ccc(C2NC(=O)CCC2[N+](=O)[O-])c(OC)c1OC (stereo unspecified) | inconclusive: 3.16 µM [activator, single point]
COc1ccc(-c2noc(CCCC(=O)NC3CCCC3)n2)cc1OC | inconclusive: 10 µM [activator, single point]
CC1CCCC(C)N1NC(=S)Nc1ccc(OC(F)F)cc1 (stereo unspecified) | inconclusive: 20 µM [activator, single point]
CCn1c(SCC(=O)Nc2cccc(NC(=O)c3cccs3)c2)nnc1-c1ccncc1 | inconclusive: 4.47 µM [activator, single point]
Cc1[nH]c2ccccc2c1/C=N/Nc1cccc(C(=O)O)c1 | inactive
Cc1ccc(Cn2ncc3c(N4CCN(c5ccc(C)cc5)CC4)ncnc32)cc1 | inconclusive: 15.8 µM [activator, single point]
CC(=O)c1cn(CC(=O)NCc2ccc3c(c2)OCO3)c2ccccc12 | inconclusive: 10 µM [activator, partial curve]
O=C(NCc1ccc2c(c1)OCO2)c1cnc2ccccn2c1=O | inconclusive: 3.98 µM [activator, single point]
O=S(=O)(NCCc1csc(-c2cccnc2)n1)c1ccc2c(c1)OCCO2 | inconclusive: 17.8 µM [activator, single point]
COc1ccc(N2Cc3ccc(C(=O)N/N=C\c4ccc(O)cc4O)cc3C2)cc1 | inconclusive: 5.62 µM [activator, partial curve]
Cc1cc(C(=O)N/N=C/c2cc(Br)cc([N+](=O)[O-])c2O)c2ccccc2n1 | active: 1.78 µM
CCCC(=O)OCCNc1cc(Sc2nccn2C)c2nonc2c1[N+](=O)[O-] | inconclusive: 3.98 µM [activator, single point]
CC(=O)Nc1cc(NC(C)=O)cc(C(=O)OCC(=O)Nc2ccc(S(=O)(=O)NC3=NCCCCC3)cc2)c1 | inconclusive: 0.794 µM [activator, full curve]
CCc1cc(C(=O)NNC(=S)Nc2cccc(C)c2)cs1 | inconclusive: 12.6 µM [activator, single point]
O=C1CCC(=O)N1OCCOc1ccc2c(c1)CCC2 | inconclusive: 4.47 µM [activator, full curve]
COC(=O)Cn1cnc2c(oc3ccccc32)c1=O | inconclusive: 0.398 µM [activator, full curve, poor fit]
CCN1C(=O)c2cccc3c(S(=O)(=O)NC(Cc4c[nH]c5ccccc45)C(=O)O)ccc1c23 (stereo unspecified) | inconclusive: 11.2 µM [activator, single point]
CCn1c(-c2ccc(F)cc2)cnc1SCC(=O)N1CCc2ccccc21 | inconclusive: 2.82 µM [activator, single point]
CCCN1C(=O)CC(c2ccco2)Sc2ccccc21 (stereo unspecified) | inactive
Cc1cc(CNC(=O)CC2C(=O)NCCN2Cc2ccccc2C(F)(F)F)on1 (stereo unspecified) | inactive
CC(Nc1ccc(S(=O)(=O)N2CCN(C)CC2)cc1[N+](=O)[O-])c1ccccc1 (stereo unspecified) | inconclusive: 17.8 µM [activator, single point]

Compound | Potency
CC1CCN(C(=O)C(=O)Nc2sc3c(c2C(=O)O)CC(C)(C)OC3)CC1 | inconclusive: 3.55 µM [activator, single point]
COc1cccc(-c2nnc(-c3ccc(C)o3)o2)c1 | inactive
O=C(NCc1ccco1)c1c(F)c(F)c(F)c(C(=O)NCc2ccco2)c1F | inactive
CCc1nnc(NS(=O)(=O)c2ccc(NC(=S)NC(=O)/C=C/c3ccc(OC)cc3)cc2)s1 | inconclusive: 20 µM [activator, single point]
O=C(COC(=O)c1ccc(S(=O)(=O)N2CCCCC2)cc1)NCc1ccco1 | inactive
Cc1[nH]n(-c2ccccc2)c(=O)c1/C=N/NC(=O)c1ccoc1C | active: 2.51 µM
COc1ccc(-c2nn(-c3ccccc3)cc2/C=N/NC(=S)NC(C)C)cc1OC | active: 7.08 µM
Cc1ccccc1-c1nc2cc(Cl)ccc2o1 | inconclusive: 11.2 µM [activator, single point]
COc1ccccc1-c1ccc(Nc2cccc(C(F)(F)F)c2)nn1 | inconclusive: 15.8 µM [activator, partial curve, poor fit]
CC1=C(C(=O)OCCOc2ccccc2)C(c2ccsc2)NC(=O)N1C (stereo unspecified) | inactive
COc1ccc2oc(=N)c(C(=O)Nc3ccc(Cl)cc3)cc2c1 | inconclusive: 1.41 µM [activator, partial curve]
C=COCCn1c(-c2nonc2N)nc2ccccc21 | inconclusive: 22.4 µM [activator, single point]
CC(C)(C)c1ccc(OCC(=O)NNC(=O)Nc2ccccc2)cc1 | inconclusive: 4.47 µM [activator, single point]
CC(C)(C)c1cnnn1-c1ccc(/C=N/Nc2ccc([N+](=O)[O-])cc2)cc1 | inconclusive: 2.51 µM [activator, partial curve]
Cc1nc2ccc([N+](=O)[O-])cc2nc1C | inactive
C=CCn1c(C)cc(C(=O)COc2ccc(C)nc2[N+](=O)[O-])c1C | inactive
COc1ccc(NC(=O)CS(=O)(=O)Cc2nc(-c3ccc(C)cc3)oc2C)cc1 | inconclusive: 3.55 µM [activator, partial curve]
O=C(CN1CCCC1)Nc1c2c(cc3c1CCC3)CCC2 | inconclusive: 20 µM [activator, single point]
CSc1ccc(C(=O)C2CCCN(C(=O)c3ccsc3)C2)cc1 (stereo unspecified) | inactive
COc1ccc(NC(=O)CSc2nc(N3CCCCC3)nc(N3CCCCC3)n2)cc1 | inconclusive: 8.91 µM [activator, partial curve]
Cc1cccc(C(=O)Nc2scc(CC(C)C)c2C(=O)O)c1 | inactive
O=C(NCCSCc1c(F)cccc1Cl)c1ccc(CN2CCOCC2)cc1 | inactive
O=C(CSc1ccccn1)N1CCN(c2cccc(Cl)c2)CC1 | inconclusive: 11.2 µM [activator, partial curve]
